Experimental data: PubChem BioAssay AID504808 (Drosophila RNAi Screening Center, 2011)
The deposit covers about 21,000 reagents; below is an unselected part of those that have a named target and a result. Over the whole deposit, 18 (0.084%) were called active. 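Raw counts without plate normalisation, one of two replicates; the ratio scores behind the calls were not deposited.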 Entries without a mark were called inactive. Names joined by + are all predicted targets of the reagent. No sequences are given here. Not given: the amount of reagent, the time to read-out.

- Assay: 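Genes whose loss lifts activity of an E2F-responsive reporter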 (primary screen)
- Cell system: Drosophila S2 cells
- Reagents: long dsRNA against Drosophila genes
- Detection: 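Dual luciferase plate measurements; E2F-specific signal taken as firefly over Renilla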
- Reading the numbers: E2F firefly: higher = more E2F reporter activity; Renilla normaliser: higher = more normaliser reporter signal
- Active means: 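Called active if the normalised E2F reporter went up by over 50%; the cutoff is arbitrary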

What did the screen give for C1GalTA (Core 1 Galactosyltransferase A) [DRSC03246]?
E2F firefly, rep 1: 78177; Renilla normaliser, rep 1: 3207

How did the screen score CG10068 [DRSC12508]?
E2F firefly, rep 1: 65329; Renilla normaliser, rep 1: 3465

Which result is listed for side-IV + CG17025 (retired record) [DRSC15168]?
E2F firefly, rep 1: 1.13e5; Renilla normaliser, rep 1: 5994

With CG13069 [DRSC09952], what was measured?
E2F firefly, rep 1: 1.55e5; Renilla normaliser, rep 1: 8215

How did the screen score LpR2 (Lipophorin receptor 2) [DRSC13726]?
E2F firefly, rep 1: 92126; Renilla normaliser, rep 1: 2622

What did the screen give for LpR2 (Lipophorin receptor 2) [DRSC13728]?
E2F firefly, rep 1: 88126; Renilla normaliser, rep 1: 2891

What did the screen give for LpR2 (Lipophorin receptor 2) [DRSC15655]?
E2F firefly, rep 1: 1766; Renilla normaliser, rep 1: 1000

Which result is listed for LpR2 (Lipophorin receptor 2) [DRSC15658]?
E2F firefly, rep 1: 83639; Renilla normaliser, rep 1: 5012

With scramb2 (scramblase 2) [DRSC08543], what does the deposit list?
E2F firefly, rep 1: 93898; Renilla normaliser, rep 1: 3925

How did the screen score Ugt303B3 (UDP-glycosyltransferase family 303 member B3) [DRSC14199]?
E2F firefly, rep 1: 98727; Renilla normaliser, rep 1: 5979

How did the screen score CG13332 [DRSC06367]?
E2F firefly, rep 1: 98142; Renilla normaliser, rep 1: 4268

With CG18368 [DRSC06731], what does the deposit list?
E2F firefly, rep 1: 1.14e5; Renilla normaliser, rep 1: 4454

With Ost48 (Oligosaccharyltransferase 48kD subunit) [DRSC18693], how do the results read?
E2F firefly, rep 1: 7974; Renilla normaliser, rep 1: 812

Which result is listed for Pif1A + Pif1B [DRSC14142]?
E2F firefly, rep 1: 1.23e5; Renilla normaliser, rep 1: 6379

What did the screen give for Pif1A + Pif1B [DRSC14380]?
E2F firefly, rep 1: 72987; Renilla normaliser, rep 1: 3679

How did the screen score Pif1A + Pif1B [DRSC14381]?
E2F firefly, rep 1: 1.37e5; Renilla normaliser, rep 1: 7193

How did the screen score hig (hikaru genki) [DRSC07628]?
E2F firefly, rep 1: 71174; Renilla normaliser, rep 1: 4179

Which result is listed for CG18808 [DRSC08539]?
E2F firefly, rep 1: 1.02e5; Renilla normaliser, rep 1: 4316

With CG17570 [DRSC01770], what was measured?
E2F firefly, rep 1: 1.26e5; Renilla normaliser, rep 1: 4257

With CG17570 [DRSC03754], what was measured?
E2F firefly, rep 1: 1.00e5; Renilla normaliser, rep 1: 4484

What is on record for Teh4 (tipE homolog 4) [DRSC08457]?
E2F firefly, rep 1: 98130; Renilla normaliser, rep 1: 4184

Which result is listed for CG31031 (retired record) [DRSC13964]?
E2F firefly, rep 1: 80490; Renilla normaliser, rep 1: 3194

For sncRNA:430e + His2A:CG33859 + His2A:CG33817 + 37 more [DRSC21264], what does the deposit list?
E2F firefly, rep 1: 71387; Renilla normaliser, rep 1: 4976

What did the screen give for Grip84 (Gamma-tubulin ring protein 84) [DRSC20248]?
E2F firefly, rep 1: 1.58e5; Renilla normaliser, rep 1: 5761

How did the screen score Atf6 [DRSC04743]?
E2F firefly, rep 1: 1.33e5; Renilla normaliser, rep 1: 6310

With Atf6 [DRSC04889], what does the deposit list?
E2F firefly, rep 1: 1.23e5; Renilla normaliser, rep 1: 4602

What did the screen give for CG31960 [DRSC00281]?
E2F firefly, rep 1: 1.50e5; Renilla normaliser, rep 1: 5676

For Pof (Painting of fourth) [DRSC04405], what does the deposit list?
E2F firefly, rep 1: 94679; Renilla normaliser, rep 1: 3736
